Data: US20240425606A1, “ANTI-IL-11RA ANTIBODIES” (Lassen Therapeutics 1, Inc., priority 2021, published 2024)
Positions count from the first letter of the chain named. Numbers in names are those of the source. Results are given in words; binding and its absence hold for the method and conditions named. Some entries that bind do so weakly or less than the wild type.

T1: human IL-11Rα (human, UniProt Q14626 23-363, limits assumed)
T1 construct: Protein coated on ELISA plates and used in solution for BLI; also called hIL-11Rα; hIL-11R
T1 sequence: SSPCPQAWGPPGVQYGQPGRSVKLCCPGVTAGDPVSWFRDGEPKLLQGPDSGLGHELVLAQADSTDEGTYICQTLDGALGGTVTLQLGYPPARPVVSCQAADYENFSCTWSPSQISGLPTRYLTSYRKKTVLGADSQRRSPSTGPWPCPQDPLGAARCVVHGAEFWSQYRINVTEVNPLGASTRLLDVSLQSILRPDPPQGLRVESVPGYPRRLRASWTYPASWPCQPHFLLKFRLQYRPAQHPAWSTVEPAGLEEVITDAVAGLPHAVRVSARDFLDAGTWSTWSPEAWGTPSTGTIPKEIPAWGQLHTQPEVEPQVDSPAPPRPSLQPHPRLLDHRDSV

B1: mAb29 (antibody, human IgG4, V domains shown)
VH: EVQLLESGGGLVQPGGSLRLSCAASGFTFSSYSMTWVRQAPGKGLEWVSSIVPYGDLTQYADSVKGRFTISRDNSKNTLYLQMNSLRAEDTAVYYCAKGPGWGSFDLWGRGTLVTVSS
VL: DIQMTQSPSSLSASVGDRVTITCQASQDINNYLNWYQQKPGKAPKLLIYDASNLQTGVPSRFSGSGSGTDFTFTISSLQPEDIATYYCQQHESQSPTFGPGTKVDIK
notes: Expressed as human IgG4 (S228P EU)
B2: mAb23 (antibody, human IgG4, V domains shown)
VH: B1 VH with S31K
VL: B1 VL
notes: as for B1
B3: mAb31 (antibody, human IgG4, V domains shown)
VH: B1 VH with S31V
VL: B1 VL
notes: as for B1
B4: mAb21 (antibody, human IgG4, V domains shown)
VH: B1 VH with S31H
VL: B1 VL
notes: as for B1
B5: mAb17 (antibody, human IgG4, V domains shown)
VH: B1 VH with S31D
VL: B1 VL
B6: mAb26 (antibody, human IgG4, V domains shown)
VH: B1 VH with S31N
VL: B1 VL
B7: mAb25 (antibody, human IgG4, V domains shown)
VH: B1 VH with S31M
VL: B1 VL
B8: mAb19 (antibody, human IgG4, V domains shown)
VH: B1 VH with S31F
VL: B1 VL
B9: mAb16 (antibody, human IgG4, V domains shown)
VH: B1 VH with S31A
VL: B1 VL
B10: mAb22 (antibody, human IgG4, V domains shown)
VH: B1 VH with S31I
VL: B1 VL
B11: mAb20 (antibody, human IgG4, V domains shown)
VH: B1 VH with S31G
VL: B1 VL
B12: mAb28 (antibody, human IgG4, V domains shown)
VH: B1 VH with S31R
VL: B1 VL
B13: mAb27 (antibody, human IgG4, V domains shown)
VH: B1 VH with S31P
VL: B1 VL
B14: mAb32 (antibody, human IgG4, V domains shown)
VH: B1 VH with S31Y
VL: B1 VL
B15: mAb18 (antibody, human IgG4, V domains shown)
VH: B1 VH with S31E
VL: B1 VL
B16: mAb24 (antibody, human IgG4, V domains shown)
VH: B1 VH with S31L
VL: B1 VL
B17: mAb30 (antibody, human IgG4, V domains shown)
VH: B1 VH with S31T
VL: B1 VL
B18: mAb5 (antibody, V domains shown)
VH: B1 VH with S31W
VL: B1 VL
notes: Expressed as human IgG4 (S228P EU); also called mAb5 IL11RA Ab
B19: mAb8 (antibody, V domains shown)
VH: B1 VH with S33A, T35S
VL: B1 VL
notes: as for B1
B20: mAb13 (antibody, V domains shown)
VH: B1 VH with S31W, G99P, P100E, G101D, S104R
VL: B1 VL
notes: as for B1
B21: mAb15 (antibody, V domains shown)
VH: B1 VH with S31W
VL: B1 VL with S93T, S95T
notes: as for B1
B22: mAb14 (antibody, V domains shown)
VH: B1 VH with S31W, D62E
VL: B1 VL
notes: as for B1
B23: mAb7 (antibody, V domains shown)
VH: B1 VH with S31N, S33A, T35S
VL: B1 VL
notes: as for B1
B24: mAb6 (antibody, V domains shown)
VH: B1 VH with S31W
VL: B1 VL with S93F
notes: as for B1
B25: mAb9 (antibody, V domains shown)
VH: B1 VH with S31W, S50G
VL: B1 VL
notes: as for B1
B26: mAb12 (antibody, V domains shown)
VH: B1 VH with S31W, G103Y
VL: B1 VL
notes: as for B1

Biological target: T1, human IL-11Rα
Assay: ELISA (format not described)

| binding | Binder |
| --- | --- |
| binds | B1 |
| binds | B2 |
| binds | B3 |
| binds | B4 |

Biological target: T1, human IL-11Rα
Assay: BLI (Octet RED96e), AHC biosensors, qualitative assessment against mAb5

| binding | Binder |
| --- | --- |
| binds | B5 |
| binds | B6 |
| binds | B7 |
| binds | B8 |
| binds | B9 |
| binds | B10 |
| binds | B11 |
| binds | B12 |
| binds | B13 |
| binds | B14 |
| binds | B15 |
| binds | B16 |
| binds | B17 |
| binds | B1 |
| binds | B2 |
| binds | B3 |
| binds | B4 |

Biological target: T1, human IL-11Rα
Assay: BLI (Octet RED96e), mAb on protein G biosensors, hIL-11Rα in solution
Description: Association was carried out in the presence of a 2-fold dilution series of hIL-11Rα and was allowed to proceed for 120 seconds; dissociation was measured for 300 to 1200 seconds.

| binding | Binder |
| --- | --- |
| binds | B18 |
| binds | B19 |
| binds | B20 |
| binds | B21 |
| binds | B22 |
| binds | B23 |
| binds | B24 |
| binds | B25 |
| binds | B26 |
